Measured values as given in patent US20180185302A1, “METHODS FOR DOWNREGULATING APOBEC3B” (Regents of the University of Minnesota, priority 2015, published 2018).
At least one compound was matched to its structure with a doubt left.

Tested on: APOBEC3B
Experiment: inhibitor pretreatment before PMA-induced APOBEC3B upregulation in MCF10A cells (RT-qPCR)
Type: cell-based, human
Details: 30-minute pretreatment with inhibitor, then PMA 25 ng/mL six hours
Method: PMA is a well-known agonist of PKC, but it also affects other cellular processes. To determine whether APOBEC3B induction by PMA occurs through PKC signal transduction or an alternative mechanism, we leveraged a panel of existing PKC inhibitors that each vary with respect to class selectivity. MCF10A cells were pre-treated for 30 minutes with varying concentrations of the pan-PKC inhibitor Gö6983 (Gschwendt et al., FEBS Lett. 392:77-80, 1996) and then treated for six hours with PMA (25 ng/mL). […] As additional controls, MCF10A cells were pretreated in parallel with the phosphoinositol 3 kinase (PI3K) inhibitor, LY294002, and the mitogen-activated protein kinase kinase (MEK) inhibitor, U0126, prior to PMA induction (FIGS. 2B and 2C).
For induction experiments, 2.5×10^5 cells were plated in a 6-well plate 1 day prior to drug treatment. PMA was then added to the media and incubated at 37° C. with 5% CO2 for six hours unless otherwise indicated. Cells were harvested, RNA was extracted, and RT-qPCR was performed as previously reported (Refsland et al. 2010, Nucleic Acids Res 38:4274-4284). For experiments utilizing inhibitors, cells were pretreated with inhibitors 30 minutes prior to PMA induction (25 ng/mL). […]

O=c1cc(N2CCOCC2)oc2c(-c3ccccc3)cccc12 [LY294002]
suppression of PMA-induced APOBEC3B mRNA induction: not and no suppression
